Measurements taken from ChEMBL document CHEMBL2311293, “Discovery of agonists of cannabinoid receptor 1 with restricted central nervous system penetration aimed for treatment of gastroesophageal reflux disease” (J Med Chem, 2013).

Assay: Lipophilicity, log D of the compound
Conditions: octanol/water

CS(=O)(=O)Cc1ccc(C(=O)Nc2cccnc2C(=O)NCC2CCC2)c2ccccc12
logD: 5.2
